From patent US11629171B2 (POLYPHOR AG, priority 2017, dated 2023)

experiment: general procedure: Fmoc solid-phase peptide synthesis; 2-chlorotrityl resin (polystyrene crosslinked with 1-5% divinylbenzene); details: whole synthesis, HPLC-MS

Point of comparison: “PEPTIDE1{[HOVal].C.Y.E.E.[D-Dab].T.W.[Dap].[tBuGly].C.[Throl]}|PEPTIDE2{[Dab].T.[Dab].[Dab].[Dab].[dL].L.[Dab].[Dab].T}$PEPTIDE1,PEPTIDE1,2:R3-11:R3|PEPTIDE1,PEPTIDE2,5:R3-1:R1|PEPTIDE2,PEPTIDE2,4:R3-10:R2$$$V2.0”, “final HPLC purity” value 87%. Against it:
- PEPTIDE1{[HOVal].C.Y.[Dap].E.[D-Dab].T.W.S.[tBuGly].C.[Throl]}|PEPTIDE2{[Dab].T.[Dab].[Dab].[Dab].[dL].L.[Dab].[Dab].T}$PEPTIDE1,PEPTIDE1,2:R3-11:R3|PEPTIDE1,PEPTIDE2,5:R3-1:R1|PEPTIDE2,PEPTIDE2,4:R3-10:R2$$$V2.0 — higher, 95%
- PEPTIDE1{[Hiv].C.Y.[Dap].E.[D-Dab].[Hse].W.S.[tBuGly].C.[Throl]}|PEPTIDE2{[Dab].T.[Dap].[Dab].[Dab].[dL].L.[Dab].[Dab].T}$PEPTIDE1,PEPTIDE1,2:R3-11:R3|PEPTIDE1,PEPTIDE2,5:R3-1:R1|PEPTIDE2,PEPTIDE2,4:R3-10:R2$$$V2.0 — higher, 95%
- PEPTIDE1{[3MeButA].C.Y.[Dap].E.[D-Dab].T.W.S.[tBuGly].C.[Throl]}|PEPTIDE2{[Dab].T.[Dab].[Dab].[Dab].[dL].L.[Dab].[Dab].T}$PEPTIDE1,PEPTIDE1,2:R3-11:R3|PEPTIDE1,PEPTIDE2,5:R3-1:R1|PEPTIDE2,PEPTIDE2,4:R3-10:R2$$$V2.0 — higher, 90%
- PEPTIDE1{[ac].[dV].C.Y.[Dab].E.[D-Dab].[Hse].W.S.[tBuGly].C.[Throl]}|PEPTIDE2{[Dab].T.[Dab].[Dab].[Dab].[dL].L.[Dab].[Dab].T}$PEPTIDE1,PEPTIDE1,3:R3-12:R3|PEPTIDE1,PEPTIDE2,6:R3-1:R1|PEPTIDE2,PEPTIDE2,4:R3-10:R2$$$V2.0 — higher, 92%
- PEPTIDE1{[pGlu].C.Y.[Dab].E.[D-Dab].[Hse].W.S.[tBuGly].C.[Throl]}|PEPTIDE2{[Dab].T.[Dab].[Dab].[Dab].[dL].L.[Dab].[Dab].T}$PEPTIDE1,PEPTIDE1,2:R3-11:R3|PEPTIDE1,PEPTIDE2,5:R3-1:R1|PEPTIDE2,PEPTIDE2,4:R3-10:R2$$$V2.0 — higher, 93%
- PEPTIDE1{[HOVal].C.Y.[Dab].E.[D-Dab].[Hse].W.S.[tBuGly].C.[Throl]}|PEPTIDE2{[Dab].S.[Dab].[Dab].[Dab].[dL].L.[Dab].[Dab].T}$PEPTIDE1,PEPTIDE1,2:R3-11:R3|PEPTIDE1,PEPTIDE2,5:R3-1:R1|PEPTIDE2,PEPTIDE2,4:R3-10:R2$$$V2.0 — lower, 84%
- PEPTIDE1{[HOVal].C.Y.[Dab].E.[D-Dab].[Hse].W.S.[tBuGly].C.[Throl]}|PEPTIDE2{[Dab].T.[Dab].[Dab].[Dab].[dF].L.[Dab].[Dab].T}$PEPTIDE1,PEPTIDE1,2:R3-11:R3|PEPTIDE1,PEPTIDE2,5:R3-1:R1|PEPTIDE2,PEPTIDE2,4:R3-10:R2$$$V2.0 — lower, 81%
- PEPTIDE1{[ac].V.C.S.[Dab].E.[D-Dab].[Hse].W.S.Y.C.V.[am]}|PEPTIDE2{[Dab].T.[Dab].[Dab].[Dab].[dL].L.[Dab].[Dab].T}$PEPTIDE1,PEPTIDE1,3:R3-12:R3|PEPTIDE1,PEPTIDE2,6:R3-1:R1|PEPTIDE2,PEPTIDE2,4:R3-10:R2$$$V2.0 — lower, 71%
- PEPTIDE1{[ac].V.C.Y.[Dap].E.[D-Dab].S.W.S.[tBuGly].C.S.[am]}|PEPTIDE2{[Dab].T.[Dap].[Dab].[Dab].[dL].L.[Dab].[Dab].T}$PEPTIDE1,PEPTIDE1,3:R3-12:R3|PEPTIDE1,PEPTIDE2,6:R3-1:R1|PEPTIDE2,PEPTIDE2,4:R3-10:R2$$$V2.0 — higher, 95%
- PEPTIDE1{[HOVal].C.Y.[Dab].E.[D-Dab].T.W.[Hse].[tBuGly].C.[Throl]}|PEPTIDE2{[Dab].T.[Dab].[Dab].[Dab].[dL].L.[Dab].[Dab].T}$PEPTIDE1,PEPTIDE1,2:R3-11:R3|PEPTIDE1,PEPTIDE2,5:R3-1:R1|PEPTIDE2,PEPTIDE2,4:R3-10:R2$$$V2.0 — lower, 84%
- PEPTIDE1{V.C.Y.[Dab].E.[D-Dab].[Hse].W.[Hse].V.C.S.[am]}|PEPTIDE2{[Dab].T.[Dab].[Dab].[Dab].[dL].L.[Dab].[Dab].T}$PEPTIDE1,PEPTIDE1,2:R3-11:R3|PEPTIDE1,PEPTIDE2,5:R3-1:R1|PEPTIDE2,PEPTIDE2,4:R3-10:R2$$$V2.0 — higher, 94%

Some peptides are written in HELM: one residue between dots, names in brackets for other building blocks, links after the first $.
